Results published in patent US20210317161 (published 2021).

Test: general procedure: hybrid (solid and solution phase) peptide synthesis; 2-Cl-Trt resin; TBTU/HOBt/DIPEA (cyclisation)
Conditions: whole synthesis, Phenomenex 250x4 mm C-18, scale of the general procedure 30 gm resin; for crude HPLC purity: di-aspartate (via trifluoroacetate and free base)

Substance | crude HPLC purity [%] | final HPLC purity (di-aspartate) [%]
H-Phe-Pro(4-OCONH—(CH2)2—NH-Boc)-Phg-D-Trp(Boc)-Lys(Boc)-Tyr (Bzl)-OH | 88.3 | –
Pasireotide | 74 | >99.5
